The record followed here is PubChem BioAssay AID2685 (National Center for Advancing Translational Sciences (NCATS), 2010).

A short description of this assay: qHTS Assay for Lipid Storage Modulators in Drosophila S3 Cells.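 On cell number change: cells counted by Cell Tracker Red CMTPX staining in the red channel.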 Particulars: BODIPY lipid droplet fluorescence, 18-24 h; for cell number change: measured here: cell count max response, cells fed with added oleic acid. The essentials:
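Laser-scanning cytometry quantifies lipid droplet accumulation (500–530 nm total intensity; droplet/cell object ratio) in oleic acid-fed (400 uM added) Drosophila S3 cells treated with a concentration series. 20 uM Triacsin C defined 100% inhibition.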

Setting [1] is: measured here: cell number channel AC50, cells fed with added oleic acid.
[2] abbreviates: measured here: lipid fluorescence (Fed channel) AC50, cells fed with added oleic acid.

The list shows a part of the results. Further columns of the screen follow, without active or inactive calls. Most of these compounds were active or inconclusive in the main read-out, so they are no random draw. The note in brackets gives the kind of curve behind each potency; many fits are weak.

Usually AC50 stands for the concentration at which the activity in the assay is half-maximal. As to `CCC(C)CCCCNC1=NCCS1` (stereo not drawn), the cell number change was determined as 68.7%. Moreover, the AC50 under setting [1] was 18.4 µM [rising, single point]. As for `CN1CCN(c2ccc(S(=O)(=O)N3CCCCC3)cc2NC(=O)COc2ccc([N+](=O)[O-])cc2)CC1`, the cell number change was 25.5%. For the same compound, the AC50 under setting [2] is 0.0116 µM [rising, full curve, poor fit]. On to `Nc1n[nH]c(=S)n1-c1ccc(Cl)cc1`, for which the cell number change was determined as 9.79%. Also, under setting [2], the AC50 is 0.0517 µM [falling, full curve, poor fit]. As to `Cc1c(C)n(Cc2ccc(F)cc2)c2ccc(C(=O)NCCCN3CCOCC3)cc12`, the AC50 under setting [2] was 29.1 µM [falling, partial curve]. On to `CS(=O)(=O)c1ccc2nc(NC(=O)Nc3ccc(Cl)cc3)sc2c1`, for which the cell number change stood at 8.31%. The AC50 under setting [2] is 9.2 µM [falling, partial curve, poor fit]. Regarding `Cc1oc2c(cc(NS(=O)(=O)c3ccc(F)cc3)c3ccccc32)c1C(=O)O`, the cell number change is -17.1%. Besides, the AC50 under setting [2] was 6.51 µM [falling, partial curve, poor fit]. For `Cc1cccc(C)c1NC(=O)c1cc(-c2ccccn2)nc2ccccc12`, under setting [1], the AC50 was 3.66 µM [rising, partial curve, poor fit]. Take `CN1CCN(c2nc(-c3ccc(Cl)cc3)nc3ccccc23)CC1`: the cell number change stood at 11.1%. With `COC(=O)C(NC(=O)c1ccccc1Cl)(Nc1ncc(S(=O)(=O)c2ccc([N+](=O)[O-])cc2)s1)C(F)(F)F` (stereo not drawn), the half-maximal activity concentration (AC50) under setting [2] is 16.4 µM [falling, partial curve]. `CCc1cccc(NC(=O)c2sc3nc4n(c(=O)c3c2C)CCC4)c1`: under setting [2], the AC50 is 8.2 µM [falling, partial curve]. For the compound `Cc1cc(C)c2c(C)nn(C3CCCCC3)c2n1`, the AC50 under setting [1] was 0.92 µM [rising, full curve] and the AC50 under setting [2] was 1.03 µM [rising, full curve]. `O=C1CCCN1CC(CN1CCOCC1)Sc1nnnn1-c1ccccc1` (stereo not drawn): the cell number change came out at 3.63%. Further, under setting [1], the AC50 was 0.82 µM [rising, full curve, poor fit]. The AC50 under setting [2] was 0.731 µM [rising, full curve]. For the compound `CCCc1cc(=O)oc2c(CNc3ccc(OCC)cc3)c(O)ccc12`, the cell number change was 23.2%. For the same compound, the AC50 under setting [2] is 0.651 µM [rising, partial curve, poor fit]. Take `C/C(=N\NC(=O)c1ccccc1F)c1ccccn1`: the AC50 under setting [1] is 3.26 µM [falling, single point]. As for `CCC1SC(CC)C(=O)N(CC(=O)Nc2ccc3c(c2)OCO3)C1=O` (stereo not drawn), the cell number change was 16.3%. In addition, under setting [2], the AC50 was 2.06 µM [rising, full curve]. Regarding `CS(=O)(=O)c1nc(S(=O)(=O)c2ccc(Cl)cc2)c(N2CCCCC2)s1`, the cell number change was -31.9%. The AC50 under setting [1] was 29.1 µM [falling, single point]. As to `CCCn1c(N2CCN(Cc3ccc(Cl)cc3)CC2)nc2ccccc21`, the cell number change is -40%. Moreover, under setting [1], the AC50 is 32.6 µM [falling, single point]. Also, the AC50 under setting [2] is 6.51 µM [falling, full curve]. On to `Cc1ccccc1-c1nc(S(=O)(=O)c2ccc(Cl)cc2)c(NCCN2CCOCC2)o1`, for which the cell number change is -1.16%. Take `CCOc1cc(N2CCOCC2)c(OCC)cc1NC(=O)CN1CCSC1=O`: the cell number change came to 0.779%. Under setting [2], the AC50 was 0.082 µM [falling, full curve, poor fit]. With `CCc1noc(C)c1C(=O)Nc1cccc2ncccc12`, the AC50 under setting [2] is 2.06 µM [falling, partial curve]. As to `O=C(NCc1ccncc1)NC12CC3CC(CC(C3)C1)C2`, the cell number change was found to be 17.7%. The AC50 under setting [2] is 0.366 µM [rising, full curve, poor fit].

Regarding `COCCN1CCN(C(=O)C2CCC(=O)N(CCc3ccc(Cl)cc3)C2)CC1` (stereo not drawn), the cell number change was -14.4%. Also, under setting [2], the AC50 was 29.1 µM [rising, single point].

Take `CC1CCCCN1C(=O)CSc1nnc(-c2ccccc2O)o1` (stereo not drawn): the cell number change turned out to be 13.9%. Further, the AC50 under setting [2] is 2.91 µM [rising, single point]. On to `CCN=C1SC(C(=O)Nc2cccc(Br)c2)CC(=O)N1CC` (stereo not drawn), for which the cell number change was -53.3%. The concentration at half-maximal activity (AC50) under setting [1] is 3.66 µM [falling, full curve]. As for `Cc1ccc2c(c1)N(CC(=O)NCCCN1CCCCC1)C(=O)c1cccnc1O2`, the cell number change is -19%. Moreover, the half-maximal activity concentration (AC50) under setting [2] is 2.06 µM [rising, partial curve]. Turning to `CCOC(=O)Cn1cc(/C=C(/C#N)C(=O)NC(C)C)c2ccccc21`, the cell number change stood at 8.98%. The AC50 under setting [2] is 32.6 µM [rising, single point]. For the compound `CCc1ccc(-c2ccc(C(=O)O)cc2)nc1`, the cell number change is -18.9%. For the same compound, under setting [1], the AC50 is 3.26 µM [falling, single point]. Further, the AC50 under setting [2] was 3.26 µM [falling, single point].

For `CCn1c(=O)c2sccc2n2c(CCCC(=O)NCc3cccnc3)nnc12`, the cell number change turned out to be 1.91%.

As for `CCN(CC)C1CCN(C(=O)c2cc(COc3cccc4cccnc34)on2)C1` (stereo not drawn), the cell number change was 17.5%. Moreover, the half-maximal activity concentration (AC50) under setting [2] is 29.1 µM [rising, single point]. Consider `COc1ccc(O)c(CN2CCCC(C(=O)Nc3cccc(-n4cccn4)c3)C2)c1` (stereo not drawn), for which the cell number change was -14.4%. For the same compound, the AC50 under setting [2] is 29.1 µM [rising, single point].

In the case of `Cc1cc(C)n(CC(O)COc2ccc(Cl)cc2)n1` (stereo not drawn), the cell number change was found to be 2.92%. Besides, the AC50 under setting [2] is 6.51 µM [rising, single point].

For `O=C1NC(=Nc2ccccc2)S/C1=C/c1cccnc1`, the cell number change amounted to 5.92%.

With `COc1ccc(-c2noc(CCCC(=O)NC3CCCCC3)n2)cc1OC`, the cell number change stood at 23.7%. For `O=C(CN1C(=O)NC2(CCCCCC2)C1=O)Nc1ccc(Cl)cc1Cl`, the cell number change was 2.95%. For the compound `C/C(CC(=O)Nc1cccc2c1CCCC2)=N\NC(=O)Cc1ccccc1`, the cell number change amounted to 20%. Besides, under setting [1], the AC50 is 0.103 µM [rising, full curve, poor fit].

For the compound `O=C(Nc1cccnc1)c1cnc2ccccc2n1`, the cell number change is -43.9%. Moreover, under setting [1], the AC50 is 16.4 µM [falling, partial curve, poor fit]. With `COCCn1c(C)cc(/C=C2/SC(=O)N(CC(=O)N3CCCC3)C2=O)c1C`, the cell number change is -34.3%. Moreover, under setting [2], the AC50 was 6.51 µM [falling, single point].

Regarding `CSc1nc(-c2ccc(Cl)cc2)nn1C(=O)c1ccco1`, the cell number change was -124%. For the same compound, under setting [1], the AC50 was 29.1 µM [falling, single point]. Turning to `O=c1[nH]cnc2scc(-c3cccs3)c12`, the cell number change is 0.956%. In addition, the AC50 under setting [2] was 2.31 µM [falling, partial curve, poor fit]. Take `COc1cccc(-c2nc(OC(C)C)c3ccccc3n2)c1`: the cell number change was -6.98%. In the case of `COc1ccc(NC(=O)NC(C)c2ccncc2)cc1OC` (stereo not drawn), the cell number change worked out at 55.2%. Moreover, the AC50 under setting [1] was 18.4 µM [rising, single point].

Regarding `CCOc1ccc(-n2c(SCC(=O)Nc3ccc4c(c3)OCO4)nc3c(c2=O)SCC3)cc1`, the AC50 under setting [1] is 0.184 µM [rising, full curve] and the concentration at half-maximal activity (AC50) under setting [2] is 0.366 µM [rising, full curve]. Consider `Cc1cc(-c2nnc(SCC(=O)Nc3ccc(F)c(F)c3)n2N)n[nH]1`, for which the cell number change was 0.708%. In addition, under setting [2], the AC50 is 6.51 µM [falling, single point]. For `Cc1onc(C(=O)Nc2cccc(C(F)(F)F)c2)c1[N+](=O)[O-]`, the cell number change is -30.7%. For the same compound, the half-maximal activity concentration (AC50) under setting [1] was 18.4 µM [falling, single point]. In addition, under setting [2], the half-maximal activity concentration (AC50) was 29.1 µM [falling, single point].

`CCOC(=O)c1nnc(-c2ccccc2)o1`: the cell number change came out at 0.781%. Also, the half-maximal activity concentration (AC50) under setting [2] is 0.164 µM [falling, single point]. As for `O=C(Nc1ccccc1N1CCOCC1)c1cccc(NS(=O)(=O)c2ccc(F)c(F)c2)c1`, the cell number change is -29.4%. On to `CC(=O)Nc1ccc(NC(=O)CSc2nnc(C)c(=O)[nH]2)cc1`, for which the cell number change is -45.8%. Moreover, the AC50 under setting [1] is 14.6 µM [falling, single point]. Moreover, the AC50 under setting [2] is 16.4 µM [falling, single point].

On to `O=C(NC(Cc1ccccc1)C(=O)O)/C(=C\c1ccccc1F)NC(=O)c1ccccc1` (stereo not drawn), for which the cell number change was -34.3%. Moreover, the AC50 under setting [1] was 7.31 µM [falling, partial curve, poor fit]. In the case of `CCOc1ccc(Nc2cc(=O)[nH]c(=O)[nH]2)cc1`, the cell number change stood at 9.79%. In the case of `CCCn1nnc(NC(=O)c2cc(Br)ccc2OC)n1`, the cell number change amounted to 1.28%. Also, the AC50 under setting [2] is 8.2 µM [rising, partial curve].

For `Cc1ccc(C(=O)NNC(=O)C2CCN(C(=O)OC(C)(C)C)CC2)cc1`, the AC50 under setting [2] was 6.51 µM [falling, single point]. As to `COc1cc(CN(C)c2ncnc3sccc23)ccc1OC(F)F`, the cell number change was -14.1%. The same measure, in the same setting: the same measure for `COc1ccc(NS(=O)(=O)c2cc(Cl)ccc2Cl)cc1S(=O)(=O)N1CCCCC1`: 15.3%.

For `CC(C)c1ccc(S(=O)(=O)N(C)C2(C)CCS(=O)(=O)C2)cc1` (stereo not drawn), the cell number change stood at 7.02%. Besides, the AC50 under setting [2] was 0.00461 µM [rising, full curve, poor fit]. Regarding `O=C(Nc1cccc2cccnc12)c1cc(F)c(F)cc1Cl`, the cell number change stood at 8.76%. Also, under setting [2], the AC50 was 29.1 µM [rising, single point]. For the compound `Cc1ccc(C)c(S(=O)(=O)N2CCCOC2CNC(=O)C(=O)NCc2ccco2)c1` (stereo not drawn), the cell number change was found to be 8.61%. In addition, under setting [1], the AC50 is 2.06 µM [falling, partial curve]. Moreover, under setting [2], the AC50 is 9.2 µM [rising, partial curve, poor fit]. With `CCC(C(=O)NCCN1CCOCC1)n1c2ccccc2c2nc(=O)cc(C)n21` (stereo not drawn), the cell number change was -3.54%. The AC50 under setting [2] is 6.51 µM [falling, partial curve, poor fit].

Regarding `CCc1ccc(-c2cc(C(=O)N/N=C/c3ccccn3)[nH]n2)cc1`, the cell number change was -31.5%. Besides, the AC50 under setting [1] is 20.6 µM [falling, single point]. Further, under setting [2], the concentration at half-maximal activity (AC50) was 20.6 µM [falling, single point]. Regarding `CCOc1ccc(N2CC(C(=O)Nc3nnc(Cc4ccc(OC)cc4)s3)CC2=O)cc1` (stereo not drawn), the cell number change is 11.3%. Besides, under setting [2], the AC50 was 29.1 µM [falling, single point]. Consider `Cc1ccc(F)cc1NC(=O)CSCc1c(C)noc1C`, for which the cell number change was 11.3%. Further, the AC50 under setting [2] was 2.31 µM [rising, partial curve, poor fit]. With `O=C(OCCN1CCCCC1)c1ccc(Cl)cc1`, the cell number change was -22.4%. Moreover, the AC50 under setting [1] was 0.651 µM [falling, full curve].

On to `COc1ccc(/C=N/n2c(=O)[nH]c3c([nH]c4ccc(Br)cc43)c2=O)cc1CN1CCOCC1`, for which the cell number change worked out at 31.1%. Under setting [1], the AC50 was 0.00517 µM [rising, full curve, poor fit].
